Here are results for 2 substances from publication PMC11446711.

Chains of the proteins cited; added tags and fusions are not shown.
UniProt Q08775: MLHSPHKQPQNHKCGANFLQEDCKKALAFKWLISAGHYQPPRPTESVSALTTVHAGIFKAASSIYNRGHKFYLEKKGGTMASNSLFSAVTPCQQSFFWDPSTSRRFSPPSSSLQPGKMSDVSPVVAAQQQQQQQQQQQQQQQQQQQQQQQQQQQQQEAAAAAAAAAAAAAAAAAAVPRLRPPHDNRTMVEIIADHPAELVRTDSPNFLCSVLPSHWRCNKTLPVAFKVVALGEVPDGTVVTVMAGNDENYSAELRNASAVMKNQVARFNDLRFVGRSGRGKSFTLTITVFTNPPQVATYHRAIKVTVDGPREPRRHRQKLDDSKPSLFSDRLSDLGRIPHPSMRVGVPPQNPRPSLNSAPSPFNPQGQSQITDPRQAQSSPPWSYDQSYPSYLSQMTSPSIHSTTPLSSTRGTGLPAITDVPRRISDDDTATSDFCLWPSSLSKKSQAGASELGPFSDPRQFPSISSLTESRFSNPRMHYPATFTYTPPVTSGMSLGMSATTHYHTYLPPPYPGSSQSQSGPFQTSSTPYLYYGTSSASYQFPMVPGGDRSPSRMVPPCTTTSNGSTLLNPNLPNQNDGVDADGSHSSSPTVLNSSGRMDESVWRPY
UniProt Q3UIR3: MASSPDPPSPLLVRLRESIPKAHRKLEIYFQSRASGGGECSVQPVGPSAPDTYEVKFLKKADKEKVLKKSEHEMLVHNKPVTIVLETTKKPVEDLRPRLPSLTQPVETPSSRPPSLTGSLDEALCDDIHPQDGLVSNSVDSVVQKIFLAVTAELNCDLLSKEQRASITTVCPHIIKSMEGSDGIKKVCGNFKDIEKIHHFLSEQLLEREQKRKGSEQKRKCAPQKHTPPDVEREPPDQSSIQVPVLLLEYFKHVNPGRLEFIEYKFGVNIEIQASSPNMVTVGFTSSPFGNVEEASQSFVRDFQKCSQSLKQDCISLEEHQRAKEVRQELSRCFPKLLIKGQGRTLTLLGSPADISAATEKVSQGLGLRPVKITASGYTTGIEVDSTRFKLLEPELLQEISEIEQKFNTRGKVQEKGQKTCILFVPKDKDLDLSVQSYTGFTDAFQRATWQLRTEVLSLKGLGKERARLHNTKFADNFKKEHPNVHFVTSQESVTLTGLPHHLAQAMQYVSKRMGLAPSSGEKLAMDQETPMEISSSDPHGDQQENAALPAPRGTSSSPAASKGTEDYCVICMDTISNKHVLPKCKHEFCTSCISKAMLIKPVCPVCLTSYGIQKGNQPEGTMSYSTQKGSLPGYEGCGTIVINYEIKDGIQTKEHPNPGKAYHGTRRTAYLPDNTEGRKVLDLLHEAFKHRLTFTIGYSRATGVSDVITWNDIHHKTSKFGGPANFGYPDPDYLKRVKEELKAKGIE

The target of assay [1] is Flag-Runx2 (RUNX family transcription factor 2) in NIH/3T3 cells (UniProt Q08775). In words: co-IP; NIH/3T3 cells transfected with Flag-Runx2 for 24 h, then 10 ng/mL TGF-β1 for 24 h and 600 mg/L L-carnitine for 15 min; enrichment for Flag by immunoprecipitation; western blot for Runx2 and DTX3L. (In general: In western blotting, separated proteins are transferred to a membrane and probed.)

The target in assay [2] is Flag-Runx2 (RUNX family transcription factor 2) (UniProt Q08775). In words: proximity ligation; Duolink assay in fixed HEK 293 cells transfected with GFP-DTX3L and Flag-Runx2; anti-Flag rabbit and anti-GFP mouse antibodies, PLUS and MINUS PLA probes.
Assay [3] shares this target. In words: co-IP; HEK 293 cells co-transfected with Flag-Runx2 and GFP-DTX3L plasmids for 24 h; enrichment for Flag or GFP on magnetic beads, lysate incubated overnight at 4°C, washed with TBS; western blot.

These are yes or no findings as the source states them, for the method shown. Binding seen in cells or lysates may run through a third protein. Some results given as binding are weak or reduced against the parent protein; the word gives no strength.

Regarding “DTX3L (deltex E3 ubiquitin ligase 3L) in NIH/3T3 cells (from UniProt Q3UIR3 1-748)”, the binding entry in assay [1] was “binds”.
Consider “GFP-DTX3L (deltex E3 ubiquitin ligase 3L) (from UniProt Q3UIR3 1-748)”, for which the binding result in assay [2] and in assay [3] was “binds” each time.
